# The supplement of paper PMC8728848
# Some of the results follow.
# Assays:
# Test in all cases: glycan array binding signal (z-score within array); higher = stronger binding
# Settings in all cases: glycan notation: IUPAC condensed, linker removed
# Neu5Ac(a2-3)Gal = molecular target: Neu5Ac(a2-3)Gal
# Outline: (§1)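 From the Consortium for Functional Glycomics database, 3228 arrays were curated, keeping only those whose protein sequence was available. Binding is given as a within-array Z-score averaged across arrays sharing a protein sequence and across linkers. Negative Z-scores can be read as non-binding.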
# [1] = molecular target: Neu5Ac(a2-3)Gal(b1-3)GalNAc
# Outline: as §1
# [2] = molecular target: Neu5Ac(a2-3)Gal(b1-3)GalNAc(b1-3)Gal(a1-4)Gal(b1-4)Glc
# Outline: as §1
# [3] = molecular target: Neu5Ac(a2-3)Gal(b1-3)GalNAc(b1-4)Gal(b1-4)Glc
# Outline: as §1
# [4] = molecular target: Neu5Ac(a2-3)Gal(b1-3)GalNAc(b1-4)[Neu5Ac(a2-3)]Gal(b1-4)Glc
# Outline: as §1
# [5] = molecular target: Neu5Ac(a2-3)Gal(b1-3)GalNAc(b1-4)[Neu5Ac(a2-8)Neu5Ac(a2-3)]Gal(b1-4)Glc
# Outline: as §1
# [6] = molecular target: Neu5Ac(a2-3)Gal(b1-3)GalNAc6S
# Outline: as §1
# [7] = molecular target: Neu5Ac(a2-3)Gal(b1-3)GlcNAc
# Outline: as §1
# [8] = molecular target: Neu5Ac(a2-3)Gal(b1-3)GlcNAc(b1-2)Man
# Outline: as §1
# [9] = molecular target: Neu5Ac(a2-3)Gal(b1-3)GlcNAc(b1-2)Man(a1-3)[GlcNAc(b1-4)][Neu5Ac(a2-3)Gal(b1-3)GlcNAc(b1-2)Man(a1-6)]Man(b1-4)GlcNAc(b1-4)GlcNAc
# Outline: as §1
# [10] = molecular target: Neu5Ac(a2-3)Gal(b1-3)GlcNAc(b1-2)Man(a1-3)[Neu5Ac(a2-3)Gal(b1-3)GlcNAc(b1-2)Man(a1-6)]Man(b1-4)GlcNAc(b1-4)GlcNAc
# Outline: as §1
# [11] = molecular target: Neu5Ac(a2-3)Gal(b1-3)GlcNAc(b1-2)[Neu5Ac(a2-3)Gal(b1-3)GlcNAc(b1-4)]Man(a1-6)[Neu5Ac(a2-3)Gal(b1-3)GlcNAc(b1-2)Man(a1-3)]Man(b1-4)GlcNAc(b1-4)GlcNAc
# Outline: as §1
# [12] = molecular target: Neu5Ac(a2-3)Gal(b1-3)GlcNAc(b1-3)Gal(b1-3)GlcNAc
# Outline: as §1
# [13] = molecular target: Neu5Ac(a2-3)Gal(b1-3)GlcNAc(b1-3)Gal(b1-4)GlcNAc
# Outline: as §1
# [14] = molecular target: Neu5Ac(a2-3)Gal(b1-3)GlcNAc(b1-3)GalNAc
# Outline: as §1
# [15] = molecular target: Neu5Ac(a2-3)Gal(b1-3)GlcNAc(b1-4)Gal(b1-4)Glc
# Outline: as §1
# [16] = molecular target: Neu5Ac(a2-3)Gal(b1-3)GlcNAc(b1-6)GalNAc
# Outline: as §1
# [17] = molecular target: Neu5Ac(a2-3)Gal(b1-3)GlcNAc6S
# Outline: as §1
# [18] = molecular target: Neu5Ac(a2-3)Gal(b1-3)[Fuc(a1-4)]GlcNAc
# Outline: as §1
# [19] = molecular target: Neu5Ac(a2-3)Gal(b1-3)[Fuc(a1-4)]GlcNAc(b1-3)Gal(b1-3)[Fuc(a1-4)]GlcNAc
# Outline: as §1
# [20] = molecular target: Neu5Ac(a2-3)Gal(b1-3)[Fuc(a1-4)]GlcNAc(b1-3)Gal(b1-4)[Fuc(a1-3)]GlcNAc
# Outline: as §1
# [21] = molecular target: Neu5Ac(a2-3)Gal(b1-3)[GlcNAc(b1-6)]GalNAc
# Outline: as §1
# [22] = molecular target: Neu5Ac(a2-3)Gal(b1-3)[Neu5Ac(a2-6)]GalNAc
# Outline: as §1
# [23] = molecular target: Neu5Ac(a2-3)Gal(b1-3)[Neu5Ac(a2-6)]GlcNAc(b1-3)[Fuc(a1-3)[Gal(b1-4)]GlcNAc(b1-6)]Gal(b1-4)Glc
# Outline: as §1
# [24] = molecular target: Neu5Ac(a2-3)Gal(b1-3)]Neu5Ac(a2-3)Gal(b1-4)]GlcNAc
# Outline: as §1
# Neu5Ac(a2-3)Gal(b1-4)Glc = molecular target: Neu5Ac(a2-3)Gal(b1-4)Glc
# Outline: as §1
# [25] = molecular target: Neu5Ac(a2-3)Gal(b1-4)GlcNAc
# Outline: as §1
# [26] = molecular target: Neu5Ac(a2-3)Gal(b1-4)GlcNAc(b1-2)Man
# Outline: as §1
# [27] = molecular target: Neu5Ac(a2-3)Gal(b1-4)GlcNAc(b1-2)Man(a1-3)[GlcNAc(b1-4)][Neu5Ac(a2-3)Gal(b1-4)GlcNAc(b1-2)Man(a1-6)]Man(b1-4)GlcNAc(b1-4)GlcNAc
# Outline: as §1
# [28] = molecular target: Neu5Ac(a2-3)Gal(b1-4)GlcNAc(b1-2)Man(a1-3)[Neu5Ac(a2-3)Gal(b1-4)GlcNAc(b1-2)Man(a1-6)]Man(b1-4)GlcNAc(b1-4)GlcNAc
# Outline: as §1
# [29] = molecular target: Neu5Ac(a2-3)Gal(b1-4)GlcNAc(b1-2)Man(a1-3)[Neu5Ac(a2-3)Gal(b1-4)GlcNAc(b1-2)Man(a1-6)]Man(b1-4)GlcNAc(b1-4)[Fuc(a1-6)]GlcNAc
# Outline: as §1
# [30] = molecular target: Neu5Ac(a2-3)Gal(b1-4)GlcNAc(b1-2)Man(a1-3)[Neu5Ac(a2-6)Gal(b1-4)GlcNAc(b1-2)Man(a1-6)]Man(b1-4)GlcNAc(b1-4)GlcNAc
# Outline: as §1
# [31] = molecular target: Neu5Ac(a2-3)Gal(b1-4)GlcNAc(b1-2)[Neu5Ac(a2-3)Gal(b1-4)GlcNAc(b1-4)]Man(a1-3)[GlcNAc(b1-4)][Neu5Ac(a2-3)Gal(b1-4)GlcNAc(b1-2)[Neu5Ac(a2-3)Gal(b1-4)GlcNAc(b1-6)]Man(a1-6)]Man(b1-4)GlcNAc(b1-4)GlcNAc
# Outline: as §1
# [32] = molecular target: Neu5Ac(a2-3)Gal(b1-4)GlcNAc(b1-2)[Neu5Ac(a2-3)Gal(b1-4)GlcNAc(b1-4)]Man(a1-3)[GlcNAc(b1-4)][Neu5Ac(a2-3)Gal(b1-4)GlcNAc(b1-4)Man(a1-6)]Man(b1-4)GlcNAc(b1-4)GlcNAc
# Outline: as §1
# [33] = molecular target: Neu5Ac(a2-3)Gal(b1-4)GlcNAc(b1-2)[Neu5Ac(a2-3)Gal(b1-4)GlcNAc(b1-6)]Man(a1-6)[Neu5Ac(a2-3)Gal(b1-4)GlcNAc(b1-2)Man(a1-3)][GlcNAc(b1-4)]Man(b1-4)GlcNAc(b1-4)GlcNAc
# Outline: as §1
# [34] = molecular target: Neu5Ac(a2-3)Gal(b1-4)GlcNAc(b1-3)Gal
# Outline: as §1
# [35] = molecular target: Neu5Ac(a2-3)Gal(b1-4)GlcNAc(b1-3)Gal(b1-3)GlcNAc
# Outline: as §1
# [36] = molecular target: Neu5Ac(a2-3)Gal(b1-4)GlcNAc(b1-3)Gal(b1-4)GlcNAc
# Outline: as §1
# [37] = molecular target: Neu5Ac(a2-3)Gal(b1-4)GlcNAc(b1-3)Gal(b1-4)GlcNAc(b1-2)Man(a1-3)[Neu5Ac(a2-3)Gal(b1-4)GlcNAc(b1-3)Gal(b1-4)GlcNAc(b1-2)Man(a1-6)]Man(b1-4)GlcNAc(b1-4)GlcNAc
# Outline: as §1
# [38] = molecular target: Neu5Ac(a2-3)Gal(b1-4)GlcNAc(b1-3)Gal(b1-4)GlcNAc(b1-3)Gal(b1-4)GlcNAc
# Outline: as §1
# [39] = molecular target: Neu5Ac(a2-3)Gal(b1-4)GlcNAc(b1-3)Gal(b1-4)GlcNAc(b1-3)Gal(b1-4)GlcNAc(b1-2)Man(a1-3)[Neu5Ac(a2-3)Gal(b1-4)GlcNAc(b1-3)Gal(b1-4)GlcNAc(b1-3)Gal(b1-4)GlcNAc(b1-2)Man(a1-6)]GalNAc
# Outline: as §1
# [40] = molecular target: Neu5Ac(a2-3)Gal(b1-4)GlcNAc(b1-3)Gal(b1-4)GlcNAc(b1-3)GalNAc
# Outline: as §1
# [41] = molecular target: Neu5Ac(a2-3)Gal(b1-4)GlcNAc(b1-3)Gal(b1-4)GlcNAc(b1-3)[Neu5Ac(a2-3)Gal(b1-4)GlcNAc(b1-3)Gal(b1-4)GlcNAc(b1-6)]GalNAc
# Outline: as §1
# [42] = molecular target: Neu5Ac(a2-3)Gal(b1-4)GlcNAc(b1-3)Gal(b1-4)GlcNAc(b1-6)[Gal(b1-3)]GalNAc
# Outline: as §1
# [43] = molecular target: Neu5Ac(a2-3)Gal(b1-4)GlcNAc(b1-3)Gal(b1-4)[Fuc(a1-3)]GlcNAc
# Outline: as §1
binder,measurement,setting,value
BIp1-His (Cryptococcus neoformans) (protein) MFTKIFVALFAATAVLSAPVESAEKRITHTGRATFYSPSVGIGACGWQNTDEELVVALNAPQYALNADHNCGQSVRITNEQNGNQEIAKVVDLCPGCNDGDLDMSPALFGALNNNDFDQGVFPISWNFLPRDDTSSSN,glycan array binding signal (z-score),Neu5Ac(a2-3)Gal,-1.27
same,glycan array binding signal (z-score),[1],-0.15
same,glycan array binding signal (z-score),[2],-0.301
same,glycan array binding signal (z-score),[3],-0.565
same,glycan array binding signal (z-score),[4],0.501
same,glycan array binding signal (z-score),[5],-0.685
same,glycan array binding signal (z-score),[6],-0.387
same,glycan array binding signal (z-score),[7],-0.217
same,glycan array binding signal (z-score),[8],-0.34
same,glycan array binding signal (z-score),[9],-0.489
same,glycan array binding signal (z-score),[10],-0.457
same,glycan array binding signal (z-score),[11],0.677
same,glycan array binding signal (z-score),[12],-0.456
same,glycan array binding signal (z-score),[13],0.65
same,glycan array binding signal (z-score),[14],-0.932
same,glycan array binding signal (z-score),[15],-1.13
same,glycan array binding signal (z-score),[16],1.86
same,glycan array binding signal (z-score),[17],0.133
same,glycan array binding signal (z-score),[18],0.485
same,glycan array binding signal (z-score),[19],-0.526
same,glycan array binding signal (z-score),[20],-0.185
same,glycan array binding signal (z-score),[21],-0.792
same,glycan array binding signal (z-score),[22],-0.138
same,glycan array binding signal (z-score),[23],-0.018
same,glycan array binding signal (z-score),[24],-0.538
same,glycan array binding signal (z-score),Neu5Ac(a2-3)Gal(b1-4)Glc,0.687
same,glycan array binding signal (z-score),[25],0.784
same,glycan array binding signal (z-score),[26],-0.517
same,glycan array binding signal (z-score),[27],-0.31
same,glycan array binding signal (z-score),[28],0.529
same,glycan array binding signal (z-score),[29],1.23
same,glycan array binding signal (z-score),[30],-0.064
same,glycan array binding signal (z-score),[31],-0.691
same,glycan array binding signal (z-score),[32],-0.714
same,glycan array binding signal (z-score),[33],-0.122
same,glycan array binding signal (z-score),[34],-0.64
same,glycan array binding signal (z-score),[35],-0.056
same,glycan array binding signal (z-score),[36],-0.038
same,glycan array binding signal (z-score),[37],-0.11
same,glycan array binding signal (z-score),[38],0.112
same,glycan array binding signal (z-score),[39],2.41
same,glycan array binding signal (z-score),[40],0.001
same,glycan array binding signal (z-score),[41],-0.12
same,glycan array binding signal (z-score),[42],-0.007
same,glycan array binding signal (z-score),[43],-0.781

# Part of the list above, set out differently:
binder	measurement	setting	value
BIp1-His (Cryptococcus neoformans) (protein) MFTKIFVALFAATAVLSAPVESAEKRITHTGRATFYSPSVGIGACGWQNTDEELVVALNAPQYALNADHNCGQSVRITNEQNGNQEIAKVVDLCPGCNDGDLDMSPALFGALNNNDFDQGVFPISWNFLPRDDTSSSN	glycan array binding signal (z-score)	[25]	0.784
same	glycan array binding signal (z-score)	[26]	-0.517
same	glycan array binding signal (z-score)	[27]	-0.31
